Literature values as cited in US7186842B2, “Polymorph of (1-benzyl-4-[(5,6-dimethoxy-1-indanone)-2-y1] methyl piperidine hydrochloride (Donepezil hydrochloride) and a process for producing thereof” (USV, Ltd., priority 2003, dated 2007).

**Q.** With COc1cc2c(cc1OC)C(=O)C(CC1CCN(Cc3ccccc3)CC1)C2.Cl (stereo not shown) [1-benzyl-4-[(5,6-dimethoxy-1-indanone)-2-yl] methyl piperidine hydrochloride] as the compound, how does the “chemical stability on storage” value read?
**A.** The value was “chemically unstable on storage”.
